Experimental findings from patent US9187790B2, “Saccharification of lignocellulosic biomass” (priority 2012, dated 2015) are described below.

Common to all, as to type: physicochemical
The nature of data set [1]: Separation of LiBr and sugars with ion exclusion chromatography. The settings on record: LiBr-sugar solution, DOWEX 1×8-400 Br− form, water eluent, FIG. 4.
Data set [2] in a line: Extraction of LiBr from biomass hydrolysate with n-butanol/hexane.
Data set [3] can be described thus: Precipitation of sugars with anti-solvent (methanol then acetone). The settings on record: for amount in the precipitated solid / share of the loaded amount in the precipitated solid: 320 mg glucose, 50 mg LiBr, 50 μL water in 1 mL methanol at 80° C., added into 10 mL acetone; for amount in the precipitate: sugar syrup from spruce hydrolysis (˜280 mg glucose, 50 mg LiBr); for amount in the precipitate / share of the syrup's amount in the precipitate: methanol then acetone; for share of the syrup's amount in the precipitate: sugar syrup from spruce hydrolysis.

The mark [4] stands for this setting: spruce hydrolysate (4 g spruce), butanol/hexane 7:3, 20 extractions.

Read-outs that look alike come from different tables or passages of the source.

For the compound `[Br-].[Li+]` [LiBr, Lithium bromide], the “separation from sugars (in words)” value in data set [1] is “separated very well”. In addition, in data set [2], the “content of the syrup-like sugar mixture after the extractions” value (from here on “content of the syrup-like sugar mixture”) was found to be 0.260 g. Moreover, in data set [3], the “amount in the precipitated solid” value came out at 4.5 mg, the “share of the loaded amount in the precipitated solid” value stood at 9%, the “amount in the precipitate” value was roughly 4 mg and the “share of the syrup's amount in the precipitate” value worked out at 8%.
As for `O=C[C@H](O)[C@@H](O)[C@H](O)[C@H](O)CO` [glucose], the “content of the syrup-like sugar mixture” value in data set [2] (setting [4]) is on record as 1.4 g. Further, in data set [3], the “amount in the precipitated solid” value turned out to be 240 mg, the “share of the loaded amount in the precipitated solid” value is 75%, the “amount in the precipitate” value is “Approximately 220 mg” and the “share of the syrup's amount in the precipitate” value is 79%.
With `O=C[C@H](O)[C@@H](O)[C@H](O)CO` [xylose], in data set [2] (setting [4]), the “content of the syrup-like sugar mixture” value is 0.075 g.
